At least one compound was matched to its structure with a doubt left.
Key:
Format in all cases: cell-based
Fas mRNA in HepG2 cells = assay: Fas mRNA by quantitative real-time RT-PCR; conditions: for up-regulation of expression of Fas mRNA with CDCA treatment: HepG2 cells treated with CDCA for 0.5 hour plus omega-3 fatty acid
Procedure: (§1) Homogeneous Caspase-3/7 Assay (Promega Corporation, Madison, Wis., United States of America). Specific apoptotic mediators (Fas and TRAIL-R2) were evaluated at 0.5, 1, 1.5, 2, and 4 hrs using quantitative real-time RT-PCR.
Experimental Design. HepG2 cells were plated and grown to 95% confluence for all experiments, except for fluorescent cell staining, where cells where grown to 50% confluence. […] HepG2 cells were treated for 4, 8, 12, 18, 24 hours for cell viability and caspase assays. Cells were treated for 0.5, 1, 1.5, 2, 4 hour for mRNA analysis by quantitative real time RT-PCR.
(§2) Quantitative RT-PCR. Total RNA was isolated from confluent cultures according to manufacturer's instructions with TRIzol™ reagent (Invitrogen, Carlsbad, Calif., United States of America). First-strand cDNAs were synthesized from 2 μg of total RNA in a 21 μl reaction volume using the SuperScript™ First-Strand Synthesis System for RT-PCR (Invitrogen) in accordance with the manufacturer's instructions. Quantitative PCR was performed in triplicate using the Model 7500 Sequence Detection System (Applied Biosystems, Foster City, Calif., United States of America). Independent PCRs were performed using the same cDNA for both the gene of interest and the 18S rRNA, using the SYBR Green PCR Master Mix (Applied Biosystems). Specific primers were designed for the genes of interest (Fas, TRAIL-R2, and IL-6). A dissociation curve was generated at the end of each PCR cycle to verify that a single product was amplified using software provided with the 7500 Sequence Detection System. The change in fluorescence of SYBR Green in every cycle was monitored by the system software, and the threshold cycle (CT) above the background for each reaction was calculated. The CT value of 18S rRNA was subtracted from that of the gene of interest to obtain a ΔCT value. The ΔCT value of an arbitrary calibrator (e.g., sample treated with ethanol as a vehicle control) was subtracted from the ΔCT value of each sample to obtain a ΔΔCT value. The mRNA expression level relative to the calibrator was expressed as 2^−ΔΔCT.

HepG2 cells = assay: Nuclear staining with ethidium bromide/acridine orange; conditions: 2 hours
Procedure: Nuclear staining. Cells were grown on glass inserts and once 50% confluence was achieved, cells were treated with CDCA±EPA for 2 hours. Immediately following treatment, cells were washed with phosphate buffered saline (PBS), fixed with methanol (−10° C.) for 15 minutes, then washed with PBS. Fixed cells were then stained for 5 minutes with ethidium bromide (100 μg/ml) and acridine orange (100 μg/ml) (EB/AO) dye mixture (Sigma-Aldrich) in PBS. Following staining, cells underwent 5 washes prior to being mounted on glass slides using VECTASHIELD® mounting medium and analyzed using an Olympus America Inc., IX50-FLA inverted reflected light fluorescence microscope (Lake Success, N.Y., United States of America).

[1] = system: pro-inflammatory cytokine (IL-6) mRNA in HepG2 cells; assay: IL-6 mRNA by quantitative RT-PCR; conditions: CDCA 200 uM and EPA 10 uM, 2 hour incubation
Procedure: as §2, with “A dissociation curve was generated at the end of each PCR cycle to verify that a single product was amplified using software provided with the 7500 Sequence Detection System.” left out, “The CT value of 18S rRNA was subtracted from that of the gene of interest to obtain a ΔCT value. The ΔCT value of an arbitrary calibrator (e.g., sample treated with ethanol as a vehicle control) was subtracted from the ΔCT value of each sample to obtain a ΔΔCT value.” left out, “2^−ΔΔCT. […]” for “2^−ΔΔCT.”
IL6 mRNA levels were measured by quantitative RT-PCR after a 2 hour incubation in a HepG2 cells. […] Statistical significance was determined using an ANOVA with Tukey's LSD. […] Statistical significance was determined using an ANOVA with Tukey's LSD.

[2] = system: caspase 3/7 activity in HepG2 cells; assay: Apo-ONE Homogeneous Caspase-3/7 Assay, CDCA-induced apoptosis; conditions: 1 and 10 μM EPA with 200 μM CDCA, 12 hours
Procedure: Cultured HepG2 cells were treated with 50, 100, or 200 μM CDCA in the presence and absence of 10 μM EPA, 10 μM DHA, or 5 μM EPA+5 μM DHA. Controls included cells incubated with vehicle alone (EtOH). Apoptosis was evaluated after 4, 8, 12, 18, and 24 hours using the Apo-ONE®
as §1
Experimental Design. HepG2 cells were plated and grown to 95% confluence for all experiments, except for fluorescent cell staining, where cells where grown to 50% confluence. Cells were treated with CDCA […] (Sigma-Aldrich), ±EPA 1-10 μM (Nu-check Prep, Elysian, Minn., United States of America), and ±DHA 10 μM (Nu-check Prep). HepG2 cells were treated for 4, 8, 12, 18, 24 hours for cell viability and caspase assays. Cells were treated for 0.5, 1, 1.5, 2, 4 hour for mRNA analysis by quantitative real time RT-PCR.
Caspase assay. Apoptosis was evaluated using the Apo-ONE® Homogeneous Caspase-3/7 Assay purchased from Promega Corporation (Madison, Wis., United States of America) and performed according to the manufacturer's instructions. […] Results were read at fluorescein 485 nm/535 nm with a Victor 2, Perkin-Elmer Wallace 1420 multilabel counter (Shelton, Conn., United States of America).

Row | Structure (SMILES) | up-regulation of expression of Fas mRNA with CDCA treatment (Fas mRNA in HepG2 cells) | induction of Fas mRNA when no CDCA was present (Fas mRNA in HepG2 cells) | EB/AO nuclear staining appearance (HepG2 cells; cells treated with CDCA+EPA) | EB/AO nuclear staining appearance (HepG2 cells; cells treated with the substance alone) | increase in IL-6 mRNA expression caused by CDCA [1] | effect of EPA on CDCA-induced caspase 3/7 activity [2] | Fas mRNA levels (Fas mRNA in HepG2 cells; CDCA 200 μM with addition of EPA 1 μM) | Fas mRNA levels (Fas mRNA in HepG2 cells; CDCA 200 μM with addition of EPA 10 μM)
1 | CC/C=C\C/C=C\C/C=C\C/C=C\C/C=C\C/C=C\CCC(=O)O [DHA, docosahexaenoic acid] | attenuated | induce a low level |  |  |  |  |  | 
2 | CC/C=C\C/C=C\C/C=C\C/C=C\C/C=C\CCCC(=O)O [EPA, eicosapentaenoic acid] | attenuated | induce a low level | cellular integrity was maintained | appear similar to control cells | attenuated | significant attenuation | no increase | no increase

From US20120277316A1, “METHODS AND COMPOSITIONS FOR TREATING AND PREVENTING PARENTERAL NUTRITION ASSOCIATED LIVER DISEASE” (University of Tennesse Research Foundation a university, priority 2010, published 2012)
